First the molecules themselves.
B1: S-tagged zebrafish Hint2 (residues 1-161) (protein, UniProt A3KP93 1-161)
chain: MTACGVLLTRQLLPFGRGLWRVLSVKSCYSTINDEVRLAQEASKKYGKLEPTIFTKIIDKTVPAVIIYEDDKCLAFRDVNPQAPVHYLVIPRIPIPRISEAHDEDSLILGHLLVVAKNIAKKEGLAEGYRVVINDGKNGAQSVYHLHIHVLGGRQMKWPPG
B2: S-tagged zebrafish Dan (residues 1-183) (protein, UniProt Q6NZ13 20-183)
chain: APHAHINRLALFPDKSAWCEAKNITQIVGHTGCTPRSIQNRACLGQCFSYSVPNTFPQSTESLVHCDSCMPAQTQWEVVTLDCSGSDEAPRVDKLVERILHCSCQSCSKESSQEGALLQLYPHEGAQDLPSLPDATHTHPQHAHMQADQRDADAHLDMHAPEAG
B3: S-tagged zebrafish Pink1 (residues 1-574) (protein, UniProt Q5PRB2 1-574)
chain: MSVKHVLSRGLELGRSVFQLGLLKPAGRVAAKFRGERLRVSRPTRTVQPQTFLPGRYRFFRLSVSGLAAQLQSGAFRRVIGGGSARNRAVFLAFGVGLGLIEQEQEEDRTSAALCQEIQAVFRKKKFQSLPKPFTSGYRLEDYVIGKQIGKGCNAAVYEAAAPFAPPVESKKCSLVELNQKEAEDDNKKEEPLRLSASPSFPLAMKMMWNIGAGSSSDAILRSMSMELVPSCPQALRKEQGELTLNGHFGAVPKRLSAHPNVITVYRAFTAEVPLLPGAREEYPDVLPTRLNPHGLGSNRTLFLVMKNYPCTLRQYLEVCVPKRTQASLMFLQLLEGVDHLCRQNIAHRDLKSDNILLEFDNTGCPRLVITDFGCCLAEDSGLKLPFSSWWVNRGGNSCLMAPEVSTAVPGPGVVIDYSKADVWAVGAIAYELFGQPNPFYTLESRSYQEKQLPALPAAAPDDVQLVVKLLLRKNPHKRPSARVAANILHISLWGRRVLMGLDKVQMAEMMAWLQCQSAVVLLKGRGRDQSSVEAELQRSFLANIELEDLRTAVSFMTYERKQWRSLLMSNTQP
B4: S-tagged zebrafish Pi4kβ (residues 1-423) (domain or fragment, UniProt Q49GP3 1-423)
chain: MGDTELELSPTHLEELQKSPSTSTTSSLSLPSSPSSGPHPLTSSSPSTSEGLPTSSPPLDVISEGLGELSLVIDTEVAKKACQEVLQKVKFLKGDGEVSSASSEPILANGTAHPEANDGGQPPKISEEEVEPIKSVRRRQKNNSSKQSWLLRLFESKLFDISMAISYLYNSKEPGVQAYIGNRLFSFRNEDVDFYLPQLLNMYIHMDEDVGDAIKPYVVYRCRQSINFSLQCAWLLGAYSSDMHISTQRHSRGTKLRKLILSDELKPSSQRIRREVPQPPPPYPPPLHHGPGMSEHSLSPSKRTHQRSKSDATVSISLSSNLKRTASNPKVETSQDEPVRLTPQREFIKSLMGIGKRLATLPTKEQKTQRLISELSLLNHKLPARVWLPTAAFDHHVVRVPHTQAVVLNSKDKAPYLIYVEVL

No constants are given. Whether binding was seen depends on the method and setting. Binding seen in cells or lysates may run through a third protein. Tags and fused reporters may be left off the sequences shown.

For the test, the target named is GST alone (glutathione S-transferase). The test is described as follows: pull-down; NCS-1-GST fusion protein (or GST alone) on glutathione sepharose beads incubated with bacterial lysates expressing S-tagged zebrafish NBPs; Western blot with HRP-conjugated S-tag antibody; only the target purified. For orientation: In western blotting, separated proteins are transferred to a membrane and probed.
With B1, the binding entry is listed as “no binding”.
Take B2: the binding entry is given as “no binding”.
Then B3, with “no binding”.
On to B4, for which the binding entry is on record as “no binding”.
